According to ChEMBL document CHEMBL4495565, “Cytopathic SARS-Cov2 screening on VERO-E6 cells in a large repurposing effort” (2020):

Tested on: SARS-CoV-2
Assay: microbe, parasite or virus in culture
Assay type: functional, organism-based, Chlorocebus sabaeus
Conditions: Severe acute respiratory syndrome coronavirus 2, Vero C1008, 48 h

## Nc1ccc(C(=O)Nc2cccc(-c3nc(N4CCOCC4)c4oc5ncccc5c4n3)c2)cn1
  IC50: 4.73 µM
